Results as given in publication PMC11412720.
Results are given in words; binding and its absence hold for the method and conditions named. Sequences can lack the tags named with a protein.

Molecular target: Scube2 (Signal sequence, CUB domain, EGF-like protein 2), FLAG-tagged (human) (UniProt Q9NQ36)
Experiment: SEC; conditioned medium with 10% FCS; Superdex200 10/300 GL, PBS, 4°C; fractions TCA-precipitated and immunoblotted (same stripped blot reprobed)

binding: no binding
B1: Scube2 (Signal sequence, CUB domain, EGF-like protein 2), FLAG-tagged (protein, UniProt Q9NQ36 32-999)
chain: VPPGRGRAAGPQEDVDECAQGLDDCHADALCQNTPTSYKCSCKPGYQGEGRQCEDIDECGNELNGGCVHDCLNIPGNYRCTCFDGFMLAHDGHNCLDVDECLENNGGCQHTCVNVMGSYECCCKEGFFLSDNQHTCIHRSEEGLSCMNKDHGCSHICKEAPRGSVACECRPGFELAKNQRDCILTCNHGNGGCQHSCDDTADGPECSCHPQYKMHTDGRSCLEREDTVLEVTESNTTSVVDGDKRVKRRLLMETCAVNNGGCDRTCKDTSTGVHCSCPVGFTLQLDGKTCKDIDECQTRNGGCDHFCKNIVGSFDCGCKKGFKLLTDEKSCQDVDECSLDRTCDHSCINHPGTFACACNRGYTLYGFTHCGDTNECSINNGGCQQVCVNTVGSYECQCHPGYKLHWNKKDCVEVKGLLPTSVSPRVSLHCGKSGGGDGCFLRCHSGIHLSSDVTTIRTSVTFKLNEGKCSLKNAELFPEGLRPALPEKHSSVKESFRYVNLTCSSGKQVPGAPGRPSTPKEMFITVEFELETNQKEVTASCDLSCIVKRTEKRLRKAIRTLRKAVHREQFHLQLSGMNLDVAKKPPRTSERQAESCGVGQGHAENQCVSCRAGTYYDGARERCILCPNGTFQNEEGQMTCEPCPRPGNSGALKTPEAWNMSECGGLCQPGEYSADGFAPCQLCALGTFQPEAGRTSCFPCGGGLATKHQGATSFQDCETRVQCSPGHFYNTTTHRCIRCPVGTYQPEFGKNNCVSCPGNTTTDFDGSTNITQCKNRRCGGELGDFTGYIESPNYPGNYPANTECTWTINPPPKRRILIVVPEIFLPIEDDCGDYLVMRKTSSSNSVTTYETCQTYERPIAFTSRSKKLWIQFKSNEGNSARGFQVPYVTYDEDYQELIEDIVRDGRLYASENHQEILKDKKLIKALFDVLAHPQNYFKYTAQESREMFPRSFIRLLRSKVSRFLRPYK
